Record: PubChem BioAssay AID504764 (Drosophila RNAi Screening Center, 2011)

Screen: 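Knock-downs that raise or lower a Notch target reporter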 (primary screen)
Cells: Drosophila Kc167 cells
Reagents: long dsRNA against Drosophila genes
Duration: about 5 days (4 days dsRNA, then 24 h after transfection)
Treatment: transfection of constitutively active membrane-tethered Notch lacking the extracellular domain, read 24 h later
Detection: 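Light from a Notch-responsive E(spl)m3 luciferase reporter under active Notch, with control-promoter and no-Notch reporter wells to normalise; raw counts from paired wells a and b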
Reading the numbers: induced reporter light, run 1, well a and induced reporter light, run 1, well b: higher = more light from the Notch target reporter with active Notch; control promoter light, run 1, well a and control promoter light, run 1, well b: higher = more light from the viral control promoter (cell number, transfection, viability); uninduced reporter light, run 1, well a: higher = more light from the Notch target reporter without active Notch
Call rule: 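Hit if the duplicate-averaged log2 ratio of induced to control-promoter light gives a plate-wise z beyond ±2, or induced to uninduced beyond ±1.8; weak-control or discordant-duplicate wells dropped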
Calls: active = modifier hit (raised or lowered Notch signal); inactive = not a hit
The screen tested about 22,000 reagents; below is a random part of those with a known target gene and a result. Over the whole deposit, 403 (1.9%) were called active. 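Unnormalised raw counts per well; ratio z-scores behind the hit calls and whether each hit raises or lowers signal are not deposited.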 Entries without a mark were called inactive. The record does not give: the amount of reagent.

no.	Target gene	amplicon	induced reporter light, run 1, well a	induced reporter light, run 1, well b	control promoter light, run 1, well a	control promoter light, run 1, well b	uninduced reporter light, run 1, well a
1	Pdk1	DRSC08682	74500	57285	1.29e5	93395	3860
2	Vha55	DRSC16896	1.22e5	1.22e5	1.02e5	80645	7480
3	Grx3	DRSC02966	1.90e5	1.98e5	1.31e5	1.52e5	14930
4	CG34301	DRSC12704	1.30e5	2.06e5	1.80e5	1.82e5	14580
5	CG6236	DRSC15999	1.03e5	81075	68285	63970	6265
6	Jasper	DRSC16352	1.55e5	1.74e5	2.70e5	3.01e5	15715
7	casp	DRSC07164	47940	60530	69920	73935	4535
8	CG13630	DRSC14631	17430	16545	17255	15845	1770
9	CG14227	DRSC19584	1.58e5	1.58e5	2.33e5	2.93e5	12870
10	Gadd45	DRSC06033	1.65e5	1.45e5	2.00e5	2.01e5	14675
11	gnu	DRSC10497	1.26e5	1.47e5	82985	96095	11110
12	sbm	DRSC20185	47825	38240	34955	32970	5750
13	CG11369	DRSC17779	1.24e5	1.33e5	1.85e5	2.03e5	9665
14	CG17744	DRSC10286	3.07e5	2.10e5	2.89e5	3.18e5	12475
15	Nf-YB	DRSC02057	61450	43410	46990	60375	3170
16	CG11672	DRSC14344	1.04e5	1.01e5	96365	67650	7820
17	CG5506	DRSC10511	2.17e5	1.68e5	2.85e5	2.40e5	12065
18	CG12116	DRSC17812	89465	1.06e5	1.46e5	1.25e5	6595
19	Orc5	DRSC03390	80115	99405	1.21e5	1.06e5	7600

Part of the list above in another layout.
Target gene | amplicon | induced reporter light, run 1, well a | induced reporter light, run 1, well b | control promoter light, run 1, well a | control promoter light, run 1, well b | uninduced reporter light, run 1, well a
CG6236 | DRSC15999 | 1.03e5 | 81075 | 68285 | 63970 | 6265
Jasper | DRSC16352 | 1.55e5 | 1.74e5 | 2.70e5 | 3.01e5 | 15715
casp | DRSC07164 | 47940 | 60530 | 69920 | 73935 | 4535
CG13630 | DRSC14631 | 17430 | 16545 | 17255 | 15845 | 1770
CG14227 | DRSC19584 | 1.58e5 | 1.58e5 | 2.33e5 | 2.93e5 | 12870
Gadd45 | DRSC06033 | 1.65e5 | 1.45e5 | 2.00e5 | 2.01e5 | 14675

Continued:
no.	Target gene	amplicon	induced reporter light, run 1, well a	induced reporter light, run 1, well b	control promoter light, run 1, well a	control promoter light, run 1, well b	uninduced reporter light, run 1, well a
20	Tmtc1	DRSC00147	50280	42830	49035	58220	3585
21	Tmtc1	DRSC00151	1.19e5	1.20e5	1.72e5	1.59e5	8115
22	Tmtc1	DRSC00314	1.15e5	1.07e5	97180	75195	9275
23	Tmtc1	DRSC00411	1.28e5	1.32e5	99890	88910	8990
24	Dnz1	DRSC03317	2.11e5	1.86e5	2.01e5	1.91e5	16605
25	CG32388	DRSC08861	2.55e5	1.81e5	2.27e5	2.15e5	15445
26	CG6277	DRSC16008	84090	1.01e5	1.98e5	2.01e5	8865
27	Chmp1	DRSC10401	1.54e5	1.57e5	76075	76150	8700
28	CG5112	DRSC15718	2.12e5	2.00e5	2.89e5	2.76e5	14292
29	CG13760	DRSC18617	99485	1.02e5	1.73e5	1.58e5	8320
30	msl-3	DRSC11371	2.15e5	2.07e5	2.32e5	2.65e5	10520
31	Vha68-2	DRSC02721	1.43e5	1.52e5	1.37e5	1.48e5	10940
32	babo	DRSC07581	2.09e5	1.93e5	2.21e5	2.51e5	17910
33	AANATL7	DRSC18616	89665	94340	1.83e5	1.82e5	8165
34	CG14190	DRSC19545	91805	1.19e5	1.12e5	1.02e5	12025
35	SIFaR	DRSC13467	77185	67985	1.08e5	92095	9105
36	SIFaR	DRSC14266	2.24e5	1.94e5	2.28e5	2.62e5	16145
37	CG5359	DRSC15780	90130	1.23e5	1.32e5	1.23e5	8985
38	CG9294	DRSC04537	46035	39060	38160	32255	2240
39	CG5662	DRSC19957	1.64e5	1.88e5	2.85e5	2.67e5	12638
40	CG9284 (retired record)	DRSC03899	76190	86595	62335	95070	8390
41	CG9284 (retired record)	DRSC04536	1.34e5	1.11e5	90510	1.03e5	8160
42	Cyp6a17	DRSC07378	1.54e5	1.60e5	1.58e5	1.48e5	10595
43	CG16799	DRSC06626	1.01e5	1.05e5	1.72e5	2.13e5	7615
44	Rilpl	DRSC18494	1.71e5	1.85e5	2.36e5	2.25e5	12138
45	CG14340	DRSC00370	1.30e5	1.10e5	96675	57040	7832
46	Arfrp1	DRSC18417	2.90e5	2.06e5	3.02e5	3.71e5	14940
47	SMC6	DRSC15829	1.65e5	1.67e5	1.86e5	1.50e5	15210
48	Hsp67Bc	DRSC11193	1.70e5	1.67e5	2.77e5	1.93e5	10855
49	Obp56b	DRSC06551	1.50e5	91480	99575	1.04e5	11270
50	CG18536	DRSC06763	50960	41155	43820	72105	6355
